# No constants are given. Whether binding was seen depends on the method and setting. Binding seen in cells or lysates may run through a third protein. Some results given as binding are weak or reduced against the parent protein; the word gives no strength.
# Chains of the proteins cited; added tags and fusions are not shown.
# UniProt P11881: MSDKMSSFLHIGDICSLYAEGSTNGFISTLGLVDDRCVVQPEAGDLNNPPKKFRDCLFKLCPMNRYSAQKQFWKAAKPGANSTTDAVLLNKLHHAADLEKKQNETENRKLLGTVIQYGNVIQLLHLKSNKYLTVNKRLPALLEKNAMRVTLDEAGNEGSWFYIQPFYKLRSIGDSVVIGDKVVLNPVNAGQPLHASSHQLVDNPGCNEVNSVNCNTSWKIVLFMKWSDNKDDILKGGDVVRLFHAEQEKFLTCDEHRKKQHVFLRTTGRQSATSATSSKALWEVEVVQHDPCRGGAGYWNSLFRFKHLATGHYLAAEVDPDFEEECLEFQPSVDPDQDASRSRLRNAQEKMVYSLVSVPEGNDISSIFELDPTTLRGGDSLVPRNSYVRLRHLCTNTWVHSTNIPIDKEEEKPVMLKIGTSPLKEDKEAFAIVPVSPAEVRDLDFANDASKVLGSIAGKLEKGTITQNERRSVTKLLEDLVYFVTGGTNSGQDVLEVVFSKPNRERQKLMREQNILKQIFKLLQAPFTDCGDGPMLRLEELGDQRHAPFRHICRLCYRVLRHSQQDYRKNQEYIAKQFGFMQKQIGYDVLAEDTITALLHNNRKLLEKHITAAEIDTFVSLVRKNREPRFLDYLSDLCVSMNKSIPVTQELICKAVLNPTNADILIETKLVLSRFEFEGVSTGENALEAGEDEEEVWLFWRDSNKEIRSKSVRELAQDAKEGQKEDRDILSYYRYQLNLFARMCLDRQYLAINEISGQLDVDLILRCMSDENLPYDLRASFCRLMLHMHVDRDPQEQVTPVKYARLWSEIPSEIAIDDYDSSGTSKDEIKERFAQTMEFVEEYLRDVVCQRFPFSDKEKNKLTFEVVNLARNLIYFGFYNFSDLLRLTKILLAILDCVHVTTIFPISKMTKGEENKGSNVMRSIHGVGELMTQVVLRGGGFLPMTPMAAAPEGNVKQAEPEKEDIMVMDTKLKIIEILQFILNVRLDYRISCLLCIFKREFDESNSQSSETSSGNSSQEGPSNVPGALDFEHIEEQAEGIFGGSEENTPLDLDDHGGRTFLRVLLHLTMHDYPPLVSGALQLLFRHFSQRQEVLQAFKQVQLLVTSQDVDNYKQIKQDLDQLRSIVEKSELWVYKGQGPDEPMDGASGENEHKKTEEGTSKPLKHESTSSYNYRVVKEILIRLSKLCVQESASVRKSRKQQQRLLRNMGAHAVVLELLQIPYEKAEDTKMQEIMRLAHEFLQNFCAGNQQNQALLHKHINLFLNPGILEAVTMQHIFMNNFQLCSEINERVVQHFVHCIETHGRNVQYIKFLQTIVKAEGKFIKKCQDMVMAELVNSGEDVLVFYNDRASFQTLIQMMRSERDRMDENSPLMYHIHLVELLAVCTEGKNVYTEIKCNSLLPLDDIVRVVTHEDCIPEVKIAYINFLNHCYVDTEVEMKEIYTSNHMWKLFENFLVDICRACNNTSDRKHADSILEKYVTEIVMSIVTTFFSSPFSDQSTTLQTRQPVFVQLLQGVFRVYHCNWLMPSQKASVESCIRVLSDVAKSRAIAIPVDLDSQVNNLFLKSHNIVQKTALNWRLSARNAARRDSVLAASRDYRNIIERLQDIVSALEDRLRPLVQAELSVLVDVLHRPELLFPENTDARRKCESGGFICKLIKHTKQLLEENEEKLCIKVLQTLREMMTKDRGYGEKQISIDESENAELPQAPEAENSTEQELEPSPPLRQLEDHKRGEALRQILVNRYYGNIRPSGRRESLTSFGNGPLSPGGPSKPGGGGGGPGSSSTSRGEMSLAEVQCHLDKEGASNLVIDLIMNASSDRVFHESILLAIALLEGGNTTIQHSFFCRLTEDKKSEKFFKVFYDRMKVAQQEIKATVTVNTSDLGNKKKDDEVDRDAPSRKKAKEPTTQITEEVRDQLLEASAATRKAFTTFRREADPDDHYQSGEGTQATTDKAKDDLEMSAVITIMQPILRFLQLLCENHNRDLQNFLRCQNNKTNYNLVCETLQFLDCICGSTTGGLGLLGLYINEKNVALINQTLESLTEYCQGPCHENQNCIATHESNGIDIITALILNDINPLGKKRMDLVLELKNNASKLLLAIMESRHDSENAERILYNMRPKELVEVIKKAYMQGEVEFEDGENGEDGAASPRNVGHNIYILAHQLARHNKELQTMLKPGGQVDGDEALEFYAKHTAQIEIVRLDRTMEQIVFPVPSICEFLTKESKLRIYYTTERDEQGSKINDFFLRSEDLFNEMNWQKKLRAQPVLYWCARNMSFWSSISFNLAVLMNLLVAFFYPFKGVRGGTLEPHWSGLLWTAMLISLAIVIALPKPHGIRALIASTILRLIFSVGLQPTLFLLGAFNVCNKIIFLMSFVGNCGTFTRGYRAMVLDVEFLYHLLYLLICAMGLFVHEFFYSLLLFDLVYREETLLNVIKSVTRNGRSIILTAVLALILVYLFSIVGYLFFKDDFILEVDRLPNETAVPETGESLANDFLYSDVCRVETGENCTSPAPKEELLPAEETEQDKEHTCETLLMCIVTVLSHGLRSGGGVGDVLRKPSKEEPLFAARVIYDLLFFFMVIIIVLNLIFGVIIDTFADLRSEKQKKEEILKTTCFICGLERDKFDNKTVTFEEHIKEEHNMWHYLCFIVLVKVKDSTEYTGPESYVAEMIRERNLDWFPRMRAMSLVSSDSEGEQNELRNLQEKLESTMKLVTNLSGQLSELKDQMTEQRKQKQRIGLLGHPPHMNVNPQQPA
# UniProt B1AWN6: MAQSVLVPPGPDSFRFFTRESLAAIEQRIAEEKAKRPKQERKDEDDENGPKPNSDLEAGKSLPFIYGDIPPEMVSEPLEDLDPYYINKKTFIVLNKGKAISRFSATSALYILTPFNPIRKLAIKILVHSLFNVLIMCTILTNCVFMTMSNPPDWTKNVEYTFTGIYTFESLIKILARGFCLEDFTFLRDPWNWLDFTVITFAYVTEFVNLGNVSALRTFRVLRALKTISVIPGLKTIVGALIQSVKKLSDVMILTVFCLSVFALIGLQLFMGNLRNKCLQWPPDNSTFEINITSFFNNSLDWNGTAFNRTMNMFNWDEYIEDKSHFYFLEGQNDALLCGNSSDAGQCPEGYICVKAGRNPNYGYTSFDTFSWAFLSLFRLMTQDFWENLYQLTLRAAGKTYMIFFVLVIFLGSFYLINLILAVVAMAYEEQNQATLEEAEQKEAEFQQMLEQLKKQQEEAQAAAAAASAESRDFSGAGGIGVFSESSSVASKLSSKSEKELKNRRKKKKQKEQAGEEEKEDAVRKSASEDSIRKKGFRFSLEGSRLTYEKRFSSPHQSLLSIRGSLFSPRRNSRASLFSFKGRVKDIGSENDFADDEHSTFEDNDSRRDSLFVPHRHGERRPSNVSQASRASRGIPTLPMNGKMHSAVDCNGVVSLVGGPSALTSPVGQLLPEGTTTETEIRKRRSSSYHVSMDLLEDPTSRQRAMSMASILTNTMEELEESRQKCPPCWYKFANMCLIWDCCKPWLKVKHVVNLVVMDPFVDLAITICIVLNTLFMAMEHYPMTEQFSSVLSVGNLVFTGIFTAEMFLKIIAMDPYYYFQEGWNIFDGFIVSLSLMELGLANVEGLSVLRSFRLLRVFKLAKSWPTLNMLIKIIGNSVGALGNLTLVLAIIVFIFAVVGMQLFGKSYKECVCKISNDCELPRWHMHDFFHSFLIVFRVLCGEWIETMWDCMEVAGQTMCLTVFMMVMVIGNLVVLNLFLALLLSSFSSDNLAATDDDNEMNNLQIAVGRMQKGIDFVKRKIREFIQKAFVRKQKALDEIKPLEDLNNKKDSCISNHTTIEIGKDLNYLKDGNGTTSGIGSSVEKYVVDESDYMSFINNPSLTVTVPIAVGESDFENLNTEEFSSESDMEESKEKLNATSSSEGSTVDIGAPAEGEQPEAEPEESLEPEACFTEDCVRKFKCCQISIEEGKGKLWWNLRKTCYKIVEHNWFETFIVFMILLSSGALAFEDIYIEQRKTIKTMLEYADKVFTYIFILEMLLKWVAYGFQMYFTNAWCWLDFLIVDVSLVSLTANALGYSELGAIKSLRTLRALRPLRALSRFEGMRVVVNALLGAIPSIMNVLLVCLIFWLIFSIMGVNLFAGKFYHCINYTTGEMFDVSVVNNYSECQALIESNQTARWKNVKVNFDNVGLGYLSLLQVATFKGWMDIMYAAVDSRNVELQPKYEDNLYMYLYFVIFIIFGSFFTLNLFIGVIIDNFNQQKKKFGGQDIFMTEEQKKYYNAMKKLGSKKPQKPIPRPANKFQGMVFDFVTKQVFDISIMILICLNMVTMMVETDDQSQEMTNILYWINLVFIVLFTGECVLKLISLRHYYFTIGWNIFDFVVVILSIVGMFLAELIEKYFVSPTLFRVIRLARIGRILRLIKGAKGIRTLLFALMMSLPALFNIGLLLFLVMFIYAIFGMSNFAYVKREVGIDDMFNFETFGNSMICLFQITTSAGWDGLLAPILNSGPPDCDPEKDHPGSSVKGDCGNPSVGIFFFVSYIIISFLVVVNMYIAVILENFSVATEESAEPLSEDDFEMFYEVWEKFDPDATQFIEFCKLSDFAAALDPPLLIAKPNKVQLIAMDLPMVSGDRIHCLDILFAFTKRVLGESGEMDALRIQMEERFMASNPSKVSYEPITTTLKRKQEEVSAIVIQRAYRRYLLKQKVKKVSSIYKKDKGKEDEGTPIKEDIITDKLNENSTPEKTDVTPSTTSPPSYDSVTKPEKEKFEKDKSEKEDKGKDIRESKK
# UniProt Q4ACU6: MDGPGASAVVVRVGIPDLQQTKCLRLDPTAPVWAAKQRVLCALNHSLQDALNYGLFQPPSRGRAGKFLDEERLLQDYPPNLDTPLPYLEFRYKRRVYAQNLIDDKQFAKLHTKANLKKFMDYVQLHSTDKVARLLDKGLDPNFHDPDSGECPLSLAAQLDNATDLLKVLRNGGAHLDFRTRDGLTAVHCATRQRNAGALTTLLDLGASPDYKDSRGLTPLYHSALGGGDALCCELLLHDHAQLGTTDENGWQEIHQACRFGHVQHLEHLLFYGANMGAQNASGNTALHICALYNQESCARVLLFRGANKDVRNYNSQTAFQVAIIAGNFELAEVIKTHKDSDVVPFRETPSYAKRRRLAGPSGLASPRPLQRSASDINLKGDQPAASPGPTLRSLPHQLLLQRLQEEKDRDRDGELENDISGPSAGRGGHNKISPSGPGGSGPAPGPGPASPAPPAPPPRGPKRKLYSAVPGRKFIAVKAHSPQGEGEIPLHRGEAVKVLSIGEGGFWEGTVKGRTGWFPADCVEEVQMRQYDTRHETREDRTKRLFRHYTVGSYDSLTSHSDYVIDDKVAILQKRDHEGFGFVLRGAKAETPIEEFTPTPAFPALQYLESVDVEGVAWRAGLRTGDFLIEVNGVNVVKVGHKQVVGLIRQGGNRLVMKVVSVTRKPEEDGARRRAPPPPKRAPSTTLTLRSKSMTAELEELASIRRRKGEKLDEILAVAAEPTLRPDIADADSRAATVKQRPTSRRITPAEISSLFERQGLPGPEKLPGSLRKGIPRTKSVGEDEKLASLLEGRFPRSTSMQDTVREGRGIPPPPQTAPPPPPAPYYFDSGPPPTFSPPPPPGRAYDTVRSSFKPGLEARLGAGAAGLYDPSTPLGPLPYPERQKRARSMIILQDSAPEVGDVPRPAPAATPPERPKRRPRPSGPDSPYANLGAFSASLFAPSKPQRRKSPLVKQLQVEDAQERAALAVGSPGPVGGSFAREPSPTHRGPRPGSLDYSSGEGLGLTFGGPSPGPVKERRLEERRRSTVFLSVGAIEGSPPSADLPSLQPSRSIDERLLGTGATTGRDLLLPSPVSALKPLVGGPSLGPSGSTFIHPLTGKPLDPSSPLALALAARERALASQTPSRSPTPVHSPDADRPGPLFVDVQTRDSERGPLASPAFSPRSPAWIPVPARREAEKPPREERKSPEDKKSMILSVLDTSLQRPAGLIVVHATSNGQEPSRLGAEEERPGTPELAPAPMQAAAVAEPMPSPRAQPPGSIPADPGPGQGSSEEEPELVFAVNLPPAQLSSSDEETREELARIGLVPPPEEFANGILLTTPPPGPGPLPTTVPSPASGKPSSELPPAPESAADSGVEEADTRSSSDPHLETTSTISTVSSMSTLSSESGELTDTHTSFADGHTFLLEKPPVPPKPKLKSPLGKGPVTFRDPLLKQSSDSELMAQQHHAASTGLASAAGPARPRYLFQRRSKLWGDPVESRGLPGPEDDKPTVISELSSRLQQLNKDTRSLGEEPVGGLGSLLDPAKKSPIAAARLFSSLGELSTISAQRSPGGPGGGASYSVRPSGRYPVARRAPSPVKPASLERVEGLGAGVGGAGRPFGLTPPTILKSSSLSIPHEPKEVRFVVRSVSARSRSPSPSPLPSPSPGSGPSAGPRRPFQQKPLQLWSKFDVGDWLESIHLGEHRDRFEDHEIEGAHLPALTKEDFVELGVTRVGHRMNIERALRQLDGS
# T1: K+/Cl- co-transporter KCC2 (mouse (endogenous in mouse forebrain)) (UniProt Q91V14)
# T1 sequence: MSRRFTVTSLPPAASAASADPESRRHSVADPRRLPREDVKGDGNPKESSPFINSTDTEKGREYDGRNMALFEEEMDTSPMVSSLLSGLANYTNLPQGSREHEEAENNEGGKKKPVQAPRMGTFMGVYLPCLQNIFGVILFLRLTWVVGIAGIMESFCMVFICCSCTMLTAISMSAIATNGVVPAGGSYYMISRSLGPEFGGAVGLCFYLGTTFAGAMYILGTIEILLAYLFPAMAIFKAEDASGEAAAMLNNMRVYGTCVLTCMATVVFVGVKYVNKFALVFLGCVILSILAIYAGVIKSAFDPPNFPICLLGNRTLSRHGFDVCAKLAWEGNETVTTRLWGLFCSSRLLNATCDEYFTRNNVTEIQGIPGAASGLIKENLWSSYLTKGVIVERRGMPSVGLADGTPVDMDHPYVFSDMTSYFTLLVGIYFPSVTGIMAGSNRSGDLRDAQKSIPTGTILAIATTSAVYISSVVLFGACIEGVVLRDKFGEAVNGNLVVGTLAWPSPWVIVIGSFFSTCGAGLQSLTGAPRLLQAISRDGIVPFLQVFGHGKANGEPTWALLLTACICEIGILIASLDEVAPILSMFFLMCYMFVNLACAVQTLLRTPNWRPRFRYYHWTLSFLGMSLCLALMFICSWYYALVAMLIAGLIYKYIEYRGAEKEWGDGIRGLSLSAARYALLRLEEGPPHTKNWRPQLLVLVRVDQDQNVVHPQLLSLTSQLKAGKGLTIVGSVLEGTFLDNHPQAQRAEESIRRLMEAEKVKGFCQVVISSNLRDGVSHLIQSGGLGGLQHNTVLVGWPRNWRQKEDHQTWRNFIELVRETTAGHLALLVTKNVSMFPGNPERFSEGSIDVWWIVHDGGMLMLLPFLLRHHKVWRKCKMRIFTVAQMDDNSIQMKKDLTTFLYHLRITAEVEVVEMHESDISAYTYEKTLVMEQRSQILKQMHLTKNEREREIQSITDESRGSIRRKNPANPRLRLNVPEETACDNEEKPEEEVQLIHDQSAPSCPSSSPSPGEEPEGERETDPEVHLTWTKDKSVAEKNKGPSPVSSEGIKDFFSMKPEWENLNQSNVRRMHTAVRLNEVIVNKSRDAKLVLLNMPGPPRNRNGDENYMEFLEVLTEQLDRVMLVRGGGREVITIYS
# B1: NCKAP1 (protein, UniProt P28660 1-1128)
# chain: MSRSVLQPSQQKLAEKLTILNDRGVGMLTRLYNIKKACGDPKAKPSYLIDKNLESAVKFIVRKFPAVETRNNNQQLAQLQKEKSEILKNLALYYFTFVDVMEFKDHVCDLLNTIDVCQVFFDITVNFDLTKNYLDLTVTYTTLMILLSRIEERKAIIGLYNYAHEMTHGASDREYPRLGQMIVDYENPLKKMMEEFVPHSKSLSDALISLQMVYPRRNLSADQWRNAQLLSLISAPSTMLNPAQSDTMPCEYLSLDAMEKWIIFGFILCHGMLNTEATALNLWKLALQSSSCLSLFRDEVFHIHKAAEDLFVNIRGYNKRINDIRECKEAAVSHAGSMHRERRKFLRSALKELATVLSDQPGLLGPKALFVFMALSFARDEIIWLLRHADNMPKKSADDFIDKHIAELIFYMEELRAHVRKYGPVMQRYYVQYLSGFDAVVLNELVQNLSVCPEDESIIMSSFVNTMTSLSVKQVEDGEVFDFRGMRLDWFRLQAYTSVSKASLSLADHRELGKMMNTIIFHTKMVDSLVEMLVETSDLSIFCFYSRAFEKMFQQCLELPSQSRYSIAFPLLCTHFMSCTHELCPEERHHIGDRSLSLCNMFLDEMAKQARNLITDICTEQCTLSDQLLPKHCAKTISQAVNKKSKKQTGKKGEPEREKPGVESMRKNRLVVTNLDKLHTALSELCFSINYVPNMAVWEHTFTPREYLTSHLEIRFTKSIVGMTMYNQATQEIAKPSELLTSVRAYMTVLQSIENYVQIDITRVFNNVLLQQTQHLDSHGEPTITSLYTNWYLETLLRQVSNGHIAYFPAMKAFVNLPTENELTFNAEEYSDISEMRSLSELLGPYGMKFLSESLMWHISSQVAELKKLVVENVDVLTQMRTSFDKPDQMAALFKRLSSVDSVLKRMTIIGVILSFRSLAQEALRDVLSYHIPFLVSSIEDFKDHIPRETDMKVAMNVYELSSAAGLPCEIDPALVVALSSQKSENISPEEEYKIACLLMVFVAVSLPTLASNVMSQYSPAIEGHCNNIHCLAKAINQIAAALFTIHKGSIEDRLKEFLALASSSLLKIGQETDKTTTRNRESVYLLLDMIVQESPFLTMDLLESCFPYVLLRNAYHAVYKQSVTSSA
# B2: CNTN1 (protein, UniProt P12960 21-1001)
# chain: DFTWHRRYGHGVSEEDKGFGPIFEEQPINTIYPEESLEGKVSLNCRARASPFPVYKWRMNNGDVDLTNDRYSMVGGNLVINNPDKQKDAGVYYCLASNNYGMVRSTEATLSFGYLDPFPPEERPEVKVKEGKGMVLLCDPPYHFPDDLSYRWLLNEFPVFITMDKRRFVSQTNGNLYIANVESSDRGNYSCFVSSPSITKSVFSKFIPLIPIPERTTKPYPADIVVQFKDIYTMMGQNVTLECFALGNPVPDIRWRKVLEPMPSTAEISTSGAVLKIFNIQLEDEGLYECEAENIRGKDKHQARIYVQAFPEWVEHINDTEVDIGSDLYWPCIATGKPIPTIRWLKNGYSYHKGELRLYDVTFENAGMYQCIAENAYGSIYANAELKILALAPTFEMNPMKKKILAAKGGRVIIECKPKAAPKPKFSWSKGTEWLVNSSRILIWEDGSLEINNITRNDGGIYTCFAENNRGKANSTGTLVITNPTRIILAPINADITVGENATMQCAASFDPALDLTFVWSFNGYVIDFNKEITHIHYQRNFMLDANGELLIRNAQLKHAGRYTCTAQTIVDNSSASADLVVRGPPGPPGGLRIEDIRATSVALTWSRGSDNHSPISKYTIQTKTILSDDWKDAKTDPPIIEGNMESAKAVDLIPWMEYEFRVVATNTLGTGEPSIPSNRIKTDGAAPNVAPSDVGGGGGTNRELTITWAPLSREYHYGNNFGYIVAFKPFDGEEWKKVTVTNPDTGRYVHKDETMTPSTAFQVKVKAFNNKGDGPYSLVAVINSAQDAPSEAPTEVGVKVLSSSEISVHWKHVLEKIVESYQIRYWAGHDKEAAAHRVQVTSQEYSARLENLLPDTQYFIEVGACNSAGCGPSSDVIETFTRKAPPSQPPRIISSVRSGSRYIITWDHVVALSNESTVTGYKILYRPDGQHDGKLFSTHKHSIEVPIPRDGEYVVEVRAHSDGGDGVVSQVKISGVSTLS
# Target: T1, K+/Cl- co-transporter KCC2 (mouse (endogenous in mouse forebrain))
# Experiment: co-IP
row,binding,Molecule
1,binds,ANK2 (from UniProt Q8C8R3 1-3898)
2,binds,ITPR1 (from UniProt P11881 1-2749)
3,binds,SCN2A (from UniProt B1AWN6 1-2006)
4,binds,SHANK3 (from UniProt Q4ACU6 1-1730)
5,binds,SPTAN1 (from UniProt P16546 1-2472)
6,binds,SPTBN1 (from UniProt Q62261 1-2363)
7,binds,B1
8,binds,B2
